Source: PubChem BioAssay AID1508597 (Cure First, 2020)
Shown is a random part of about 2,100 reagents. 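Calls flag viability under 80% in either arm, not effects specific to rucaparib; the reference for percent is not stated.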 Entries without a mark were called inactive. A reagent listed more than once was tested more than once; the source does not tell the runs apart. Reagent sequences are not shown. Not given: the 100% reference.

Screen: 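Survival screen with siRNA in ovarian cancer cells derived from patients, with or without rucaparib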 (primary screen)
System: human ovarian carcinoma lines grown from tumours: OCI-P5x (papillary serous) and OCI-C5x (clear cell)
Knock-down reagent: siRNA pool against human genes, 1.25 pmol siRNA per well
Time to read-out: 72 h or 96 h, depending on the cell culture
Challenge: rucaparib 20 µM (about IC30) or vehicle, present until read-out
Measured: 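Luminescent ATP-based viability assay read 72 or 96 h after transfection, depending on culture, given as normalised percent viability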
Reading the numbers: viability, normalised: higher = more viable cells remaining
Call rule: 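a well counts as a hit if its normalised viability is under 80 percent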
Calls: active = viability under 80%; inactive = viability 80% or more

no.	gene	rucaparib or vehicle	cell line	technical replicate	viability, normalised (%)
1	IRAK3 (interleukin 1 receptor associated kinase 3)	Rucaparib	OCI-C5x (clear cell)	1	59.1 (active)
2	IRAK3 (interleukin 1 receptor associated kinase 3)	Rucaparib	OCI-C5x (clear cell)	2	65.3 (active)
3	IRAK3 (interleukin 1 receptor associated kinase 3)	Rucaparib	OCI-C5x (clear cell)	3	63.8 (active)
4	IRAK3 (interleukin 1 receptor associated kinase 3)	Rucaparib	OCI-P5x (serous)	1	93
5	IRAK3 (interleukin 1 receptor associated kinase 3)	Rucaparib	OCI-P5x (serous)	2	96
6	IRAK3 (interleukin 1 receptor associated kinase 3)	Rucaparib	OCI-P5x (serous)	3	96.1
7	IRAK3 (interleukin 1 receptor associated kinase 3)	Vehicle	OCI-C5x (clear cell)	1	45.2 (active)
8	IRAK3 (interleukin 1 receptor associated kinase 3)	Vehicle	OCI-C5x (clear cell)	2	54.1 (active)
9	IRAK3 (interleukin 1 receptor associated kinase 3)	Vehicle	OCI-C5x (clear cell)	3	47.4 (active)
10	IRAK3 (interleukin 1 receptor associated kinase 3)	Vehicle	OCI-P5x (serous)	1	80 (active)
11	IRAK3 (interleukin 1 receptor associated kinase 3)	Vehicle	OCI-P5x (serous)	2	82.7
12	IRAK3 (interleukin 1 receptor associated kinase 3)	Vehicle	OCI-P5x (serous)	3	65.6 (active)
13	SPEG (striated muscle enriched protein kinase)	Rucaparib	OCI-C5x (clear cell)	1	41.3 (active)
14	SPEG (striated muscle enriched protein kinase)	Rucaparib	OCI-C5x (clear cell)	1	78.8 (active)
15	SPEG (striated muscle enriched protein kinase)	Rucaparib	OCI-C5x (clear cell)	2	61.9 (active)
16	SPEG (striated muscle enriched protein kinase)	Rucaparib	OCI-C5x (clear cell)	2	53.8 (active)
17	SPEG (striated muscle enriched protein kinase)	Rucaparib	OCI-C5x (clear cell)	3	60.8 (active)
18	SPEG (striated muscle enriched protein kinase)	Rucaparib	OCI-C5x (clear cell)	3	60.1 (active)
19	SPEG (striated muscle enriched protein kinase)	Rucaparib	OCI-P5x (serous)	1	99.8
20	SPEG (striated muscle enriched protein kinase)	Rucaparib	OCI-P5x (serous)	1	68.3 (active)
21	SPEG (striated muscle enriched protein kinase)	Rucaparib	OCI-P5x (serous)	2	65.5 (active)
22	SPEG (striated muscle enriched protein kinase)	Rucaparib	OCI-P5x (serous)	2	92.9
23	SPEG (striated muscle enriched protein kinase)	Rucaparib	OCI-P5x (serous)	3	58 (active)
24	SPEG (striated muscle enriched protein kinase)	Rucaparib	OCI-P5x (serous)	3	84.9
25	SPEG (striated muscle enriched protein kinase)	Vehicle	OCI-C5x (clear cell)	1	44.2 (active)
26	SPEG (striated muscle enriched protein kinase)	Vehicle	OCI-C5x (clear cell)	1	60.7 (active)
27	SPEG (striated muscle enriched protein kinase)	Vehicle	OCI-C5x (clear cell)	2	48.3 (active)
28	SPEG (striated muscle enriched protein kinase)	Vehicle	OCI-C5x (clear cell)	2	57.5 (active)
29	SPEG (striated muscle enriched protein kinase)	Vehicle	OCI-C5x (clear cell)	3	54.2 (active)
30	SPEG (striated muscle enriched protein kinase)	Vehicle	OCI-C5x (clear cell)	3	40.8 (active)
31	SPEG (striated muscle enriched protein kinase)	Vehicle	OCI-P5x (serous)	1	106
32	SPEG (striated muscle enriched protein kinase)	Vehicle	OCI-P5x (serous)	1	61.8 (active)
33	SPEG (striated muscle enriched protein kinase)	Vehicle	OCI-P5x (serous)	2	64.8 (active)
34	SPEG (striated muscle enriched protein kinase)	Vehicle	OCI-P5x (serous)	2	92.5
35	SPEG (striated muscle enriched protein kinase)	Vehicle	OCI-P5x (serous)	3	72 (active)
36	SPEG (striated muscle enriched protein kinase)	Vehicle	OCI-P5x (serous)	3	81.6

Continued, starting with the last 5 of the part before.
no.	gene	rucaparib or vehicle	cell line	technical replicate	viability, normalised (%)
32	SPEG (striated muscle enriched protein kinase)	Vehicle	OCI-P5x (serous)	1	61.8 (active)
33	SPEG (striated muscle enriched protein kinase)	Vehicle	OCI-P5x (serous)	2	64.8 (active)
34	SPEG (striated muscle enriched protein kinase)	Vehicle	OCI-P5x (serous)	2	92.5
35	SPEG (striated muscle enriched protein kinase)	Vehicle	OCI-P5x (serous)	3	72 (active)
36	SPEG (striated muscle enriched protein kinase)	Vehicle	OCI-P5x (serous)	3	81.6
37	PTK6 (protein tyrosine kinase 6)	Rucaparib	OCI-C5x (clear cell)	1	56.2 (active)
38	PTK6 (protein tyrosine kinase 6)	Rucaparib	OCI-C5x (clear cell)	2	45.4 (active)
39	PTK6 (protein tyrosine kinase 6)	Rucaparib	OCI-C5x (clear cell)	3	61.5 (active)
40	PTK6 (protein tyrosine kinase 6)	Rucaparib	OCI-P5x (serous)	1	87.4
41	PTK6 (protein tyrosine kinase 6)	Rucaparib	OCI-P5x (serous)	2	89.5
42	PTK6 (protein tyrosine kinase 6)	Rucaparib	OCI-P5x (serous)	3	72.9 (active)
43	PTK6 (protein tyrosine kinase 6)	Vehicle	OCI-C5x (clear cell)	1	51.8 (active)
44	PTK6 (protein tyrosine kinase 6)	Vehicle	OCI-C5x (clear cell)	2	52.2 (active)
45	PTK6 (protein tyrosine kinase 6)	Vehicle	OCI-C5x (clear cell)	3	54.3 (active)
46	PTK6 (protein tyrosine kinase 6)	Vehicle	OCI-P5x (serous)	1	59.7 (active)
47	PTK6 (protein tyrosine kinase 6)	Vehicle	OCI-P5x (serous)	2	49.9 (active)
48	PTK6 (protein tyrosine kinase 6)	Vehicle	OCI-P5x (serous)	3	54.2 (active)
49	DPY30 (dpy-30 histone methyltransferase complex regulatory subunit)	Rucaparib	OCI-C5x (clear cell)	1	65.8 (active)
50	DPY30 (dpy-30 histone methyltransferase complex regulatory subunit)	Rucaparib	OCI-C5x (clear cell)	2	54.2 (active)
51	DPY30 (dpy-30 histone methyltransferase complex regulatory subunit)	Rucaparib	OCI-C5x (clear cell)	3	55.3 (active)
52	DPY30 (dpy-30 histone methyltransferase complex regulatory subunit)	Rucaparib	OCI-P5x (serous)	1	62.6 (active)
53	DPY30 (dpy-30 histone methyltransferase complex regulatory subunit)	Rucaparib	OCI-P5x (serous)	2	63.7 (active)
54	DPY30 (dpy-30 histone methyltransferase complex regulatory subunit)	Rucaparib	OCI-P5x (serous)	3	70.3 (active)
55	DPY30 (dpy-30 histone methyltransferase complex regulatory subunit)	Vehicle	OCI-C5x (clear cell)	1	61.6 (active)
56	DPY30 (dpy-30 histone methyltransferase complex regulatory subunit)	Vehicle	OCI-C5x (clear cell)	2	57 (active)
57	DPY30 (dpy-30 histone methyltransferase complex regulatory subunit)	Vehicle	OCI-C5x (clear cell)	3	55.7 (active)
58	DPY30 (dpy-30 histone methyltransferase complex regulatory subunit)	Vehicle	OCI-P5x (serous)	1	69.3 (active)
59	DPY30 (dpy-30 histone methyltransferase complex regulatory subunit)	Vehicle	OCI-P5x (serous)	2	67.3 (active)
60	DPY30 (dpy-30 histone methyltransferase complex regulatory subunit)	Vehicle	OCI-P5x (serous)	3	57.6 (active)
